IC50 data for one compound are collected here from doi:10.1101/041947v2 (biorxiv, 2016).

The test deals with A549. The test is described as follows: cells. The following applies: Homo sapiens, A549, read-out: IC50 nM.

`CC(=O)O[C@H]1C(=O)[C@@]2(C)[C@H]([C@H](OC(=O)c3ccccc3)[C@]3(O)C[C@H](OC(=O)[C@H](O)[C@@H](NC(=O)c4ccccc4)c4ccccc4)C(C)=C1C3(C)C)[C@]1(OC(C)=O)CO[C@@H]1C[C@@H]2O` [Paclitaxel]: the half-inhibitory concentration (IC50) (commonly the concentration that inhibits the measured activity by half) was found to be 4.3 nM.
